Test results reported in patent publication US4661516A, “Diaminocyclohexane platinum complexes” (Research Corporation, priority 1984, dated 1987).

Key:
[1] = test system: Wild type L1210 leukemic cells; test: In vitro cytotoxicity, wild type L1210 leukemic cells (L1210/0); format: cell-based; conditions: L1210, 72 hours incubation
Experimental: Four ml of cell suspension (10^5 cells/ml) are added to culture tubes and the appropriate concentration (0.01, 0.1, 1 or 10 μg/ml final concentration) of drug added to the culture tubes. After 72 hours of incubation, the cell concentration of control and experimental cultures are determined with the aid of a Coulter Counter® Model ZBf and the percent inhibition calculated. […]

[2] = test system: L1210 leukemia cells (L1210/PDD); test: In vitro cytotoxicity / cross-resistance, L1210/PDD (L1210/DDP) cells resistant to cisdiamminedichloroplatinum(II); format: cell-based; conditions: 96 hours
Experimental: Four ml of cell suspension were added to culture tubes and the appropriate concentration (0.01, 0.1, 1 or 10 μg/ml final drug concentration) was added. After 96 hours the cell concentration of control and experimental cultures were calculated with the aid of a Coulter Counter® Model ZBf and the percent inhibition calculated.

Male albino mice = test: Acute toxicity, single intraperitoneal injection (Example 19); format: in vivo; conditions: single i.p.
Experimental: Male albino mice were administered a single intraperitoneal injection of the appropriate test compound and were observed daily for signs of toxicity and survival. Fourteen days after treatment all surviving mice were sacrified and the LD10, LD50 and LD90 were calculated.

SMILES: NC1CCCCC1N.O.O.O=C([O-])C1=CC(O)C(O)C(O)C1.O=C([O-])C1=CC(O)C(O)C(O)C1.[Pt+2] (stereo not drawn) [Compound 10, cis-bis-shikimato(DACH)Pt(II).2H2 O]
- ID50 [1]: 2.5 µg/mL
- ID50 L1210/PDD [2]: 1.2 µg/mL
- DEATHS/TREATED (Male albino mice; 50 mg/kg): 0/6
- DEATHS/TREATED (Male albino mice; 100 mg/kg): 1/6
- DEATHS/TREATED (Male albino mice; 125 mg/kg): 3/6
- DEATHS/TREATED (Male albino mice; 160 mg/kg): 5/6
- DEATHS/TREATED (Male albino mice; 200 mg/kg): 3/6
- Calculated LD10 (Male albino mice; 14 days): 85 mg/kg
- Calculated LD50 (Male albino mice; 14 days): 130 mg/kg
- Calculated LD90 (Male albino mice; 14 days): 205 mg/kg
